PubChem BioAssay AID1508597 – Cure First | 2020
Screen: 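Survival screen with siRNA in ovarian cancer cells derived from patients, with or without rucaparib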 (primary screen). Cells: human ovarian carcinoma lines grown from tumours: OCI-P5x (papillary serous) and OCI-C5x (clear cell). Reagent: siRNA pool against human genes, 1.25 pmol siRNA per well. Duration: 72 h or 96 h, depending on the cell culture. Challenge: rucaparib 20 µM (about IC30) or vehicle, present until read-out. Measured: 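ATP luminescence measured at 72 or 96 h according to the culture, then normalised and expressed as percent viability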. Scale: viability, normalised: higher = more viable cells remaining. Call rule: 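a well counts as a hit if its normalised viability is under 80 percent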. Meaning of the calls: active = viability under 80%; inactive = viability 80% or more.
This is an unselected part of about 2,100 reagents. 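Calls flag viability under 80% in either arm, not effects specific to rucaparib; the reference for percent is not stated.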 Not given: the 100% reference.

| target | rucaparib or vehicle | cell line | technical replicate | viability, normalised (%) | Outcome |
| --- | --- | --- | --- | --- | --- |
| PRKAB2 | Rucaparib | OCI-C5x (clear cell) | 1 | 56.4 | active |
| PRKAB2 | Rucaparib | OCI-C5x (clear cell) | 2 | 58.5 | active |
| PRKAB2 | Rucaparib | OCI-C5x (clear cell) | 3 | 77.4 | active |
| PRKAB2 | Rucaparib | OCI-P5x (serous) | 1 | 90.2 | inactive |
| PRKAB2 | Rucaparib | OCI-P5x (serous) | 2 | 79.7 | active |
| PRKAB2 | Rucaparib | OCI-P5x (serous) | 3 | 79.9 | active |
| PRKAB2 | Vehicle | OCI-C5x (clear cell) | 1 | 68.7 | active |
| PRKAB2 | Vehicle | OCI-C5x (clear cell) | 2 | 89.2 | inactive |
| PRKAB2 | Vehicle | OCI-C5x (clear cell) | 3 | 50.4 | active |
| PRKAB2 | Vehicle | OCI-P5x (serous) | 1 | 71.9 | active |
| PRKAB2 | Vehicle | OCI-P5x (serous) | 2 | 101 | inactive |
| PRKAB2 | Vehicle | OCI-P5x (serous) | 3 | 97.3 | inactive |

Sorted by “viability, normalised (%)” (high to low): 3 of the entries above
| target | rucaparib or vehicle | cell line | technical replicate | viability, normalised (%) | Outcome |
| --- | --- | --- | --- | --- | --- |
| PRKAB2 | Rucaparib | OCI-P5x (serous) | 3 | 79.9 | active |
| PRKAB2 | Rucaparib | OCI-P5x (serous) | 2 | 79.7 | active |
| PRKAB2 | Vehicle | OCI-C5x (clear cell) | 1 | 68.7 | active |

The listing continues.
| target | rucaparib or vehicle | cell line | technical replicate | viability, normalised (%) | Outcome |
| --- | --- | --- | --- | --- | --- |
| ZNF451 | Rucaparib | OCI-C5x (clear cell) | 1 | 48.8 | active |
| ZNF451 | Rucaparib | OCI-C5x (clear cell) | 2 | 55 | active |
| ZNF451 | Rucaparib | OCI-C5x (clear cell) | 3 | 40.7 | active |
| ZNF451 | Rucaparib | OCI-P5x (serous) | 1 | 47.2 | active |
| ZNF451 | Rucaparib | OCI-P5x (serous) | 2 | 61.1 | active |
| ZNF451 | Rucaparib | OCI-P5x (serous) | 3 | 67.8 | active |
| ZNF451 | Vehicle | OCI-C5x (clear cell) | 1 | 18 | active |
| ZNF451 | Vehicle | OCI-C5x (clear cell) | 2 | 49.1 | active |
| ZNF451 | Vehicle | OCI-C5x (clear cell) | 3 | 29.6 | active |
| ZNF451 | Vehicle | OCI-P5x (serous) | 1 | 73.4 | active |
| ZNF451 | Vehicle | OCI-P5x (serous) | 2 | 59.3 | active |
| ZNF451 | Vehicle | OCI-P5x (serous) | 3 | 128 | inactive |
